Article PMC5777820
No constants are given. Whether binding was seen depends on the method and setting. Binding seen in cells or lysates may run through a third protein. Some entries that bind do so weakly or less than the wild type.

Sequences of proteins named here, by UniProt entry; tags and fusion partners are left off. Residues count along the entry.
UniProt P70302, residues 23-685: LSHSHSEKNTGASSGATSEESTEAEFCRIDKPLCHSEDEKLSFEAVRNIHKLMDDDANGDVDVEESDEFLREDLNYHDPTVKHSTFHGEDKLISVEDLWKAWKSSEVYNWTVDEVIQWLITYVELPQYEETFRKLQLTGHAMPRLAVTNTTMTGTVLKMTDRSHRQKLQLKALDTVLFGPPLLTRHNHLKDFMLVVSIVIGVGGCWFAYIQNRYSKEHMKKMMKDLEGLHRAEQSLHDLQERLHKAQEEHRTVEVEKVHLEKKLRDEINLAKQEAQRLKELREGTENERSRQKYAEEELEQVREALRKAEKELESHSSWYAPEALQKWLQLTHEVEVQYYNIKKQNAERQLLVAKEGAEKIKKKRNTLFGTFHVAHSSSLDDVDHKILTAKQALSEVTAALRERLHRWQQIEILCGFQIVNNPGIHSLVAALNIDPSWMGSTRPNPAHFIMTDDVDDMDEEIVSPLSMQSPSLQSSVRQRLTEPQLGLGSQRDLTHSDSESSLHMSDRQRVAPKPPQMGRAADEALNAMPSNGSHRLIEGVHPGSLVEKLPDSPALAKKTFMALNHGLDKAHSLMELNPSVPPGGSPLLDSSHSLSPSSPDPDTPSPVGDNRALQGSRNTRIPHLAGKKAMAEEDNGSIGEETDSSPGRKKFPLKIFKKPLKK

Tests used:
[1] = target: STIM1 (endogenous, mouse primary hepatocytes) (mouse (endogenous in primary hepatocytes)) (UniProt P70302); assay: co-IP; anti-STIM1 antibody cross-linked to protein-A magnetic beads with DMP; lysates of primary hepatocytes from WT and Lep^ob/ob mice in IP lysis buffer (50 mM Tris-HCl pH 7.4, 1 mM EDTA, 150 mM NaCl, 10 mM Na3VO4, 1% NP-40, protease inhibitors, 10 µM PugNac); 300-400 µg protein, overnight; 3 washes; immunoblot for OGT
3xFLAG-mSTIM1 (mouse) = 3xFLAG-mSTIM1 (mouse) (UniProt P70302); assay: co-IP; lysates of cells stably expressing STIM1-Flag with or without OGT overexpression incubated with anti-flag M2 magnetic beads, eluted by competition with 3x flag peptide; immunoblot for O-GlcNAc and OGT

Binder	binding [1]	binding (3xFLAG-mSTIM1 (mouse))
OGT (endogenous, mouse primary hepatocytes) (enzyme, UniProt Q8CGY8 1-1046) MASSVGNVADSTEPTKRMLSFQGLAELAHREYQAGDFEAAERHCMQLWRQEPDNTGVLLLLSSIHFQCRRLDRSAHFSTLAIKQNPLLAEAYSNLGNVYKERGQLQEAIEHYRHALRLKPDFIDGYINLAAALVAAGDMEGAVQAYVSALQYNPDLYCVRSDLGNLLKALGRLEEAKACYLKAIETQPNFAVAWSNLGCVFNAQGEIWLAIHHFEKAVTLDPNFLDAYINLGNVLKEARIFDRAVAAYLRALSLSPNHAVVHGNLACVYYEQGLIDLAIDTYRRAIELQPHFPDAYCNLANALKEKGSVAEAEDCYNTALRLCPTHADSLNNLANIKREQGNIEEAVRLYRKALEVFPEFAAAHSNLASVLQQQGKLQEALMHYKEAIRISPTFADAYSNMGNTLKEMQDVQGALQCYTRAIQINPAFADAHSNLASIHKDSGNIPEAIASYRTALKLKPDFPDAYCNLAHCLQIVCDWTDYDERMKKLVSIVAEQLEKNRLPSVHPHHSMLYPLSHGFRKAIAERHGNLCLDKINVLHKPPYEHPKDLKLSDGRLRVGYVSSDFGNHPTSHLMQSIPGMHNPDKFEVFCYALSPDDGTNFRVKVMAEANHFIDLSQIPCNGKAADRIHQDGIHILVNMNGYTKGARNELFALRPAPIQAMWLGYPGTSGALFMDYIITDQETSPAEVAEQYSEKLAYMPHTFFIGDHANMFPHLKKKAVIDFKSNGHIYDNRIVLNGIDLKAFLDSLPDVKIVKMKCPDGGDNPDSSNTALNMPVIPMNTIAEAVIEMINRGQIQITINGFSISNGLATTQINNKAATGEEVPRTIIVTTRSQYGLPEDAIVYCNFNQLYKIDPSTLQMWANILKRVPNSVLWLLRFPAVGEPNIQQYAQNMGLPQNRIIFSPVAPKEEHVRRGQLADVCLDTPLCNGHTTGMDVLWAGTPMVTMPGETLASRVAASQLTCLGCLELIAKSRQEYEDIAVKLGTDLEYLKKIRGKVWKQRISSPLFNTKQYTMELERLYLQMWEHYAAGNKPDHMIKPVEVTESA	binds	
hOGT (overexpressed from the hOGT/RFP co-expression plasmid with a self-cleaving P2A linker) (enzyme, UniProt O15294 1-1046) MASSVGNVADSTEPTKRMLSFQGLAELAHREYQAGDFEAAERHCMQLWRQEPDNTGVLLLLSSIHFQCRRLDRSAHFSTLAIKQNPLLAEAYSNLGNVYKERGQLQEAIEHYRHALRLKPDFIDGYINLAAALVAAGDMEGAVQAYVSALQYNPDLYCVRSDLGNLLKALGRLEEAKACYLKAIETQPNFAVAWSNLGCVFNAQGEIWLAIHHFEKAVTLDPNFLDAYINLGNVLKEARIFDRAVAAYLRALSLSPNHAVVHGNLACVYYEQGLIDLAIDTYRRAIELQPHFPDAYCNLANALKEKGSVAEAEDCYNTALRLCPTHADSLNNLANIKREQGNIEEAVRLYRKALEVFPEFAAAHSNLASVLQQQGKLQEALMHYKEAIRISPTFADAYSNMGNTLKEMQDVQGALQCYTRAIQINPAFADAHSNLASIHKDSGNIPEAIASYRTALKLKPDFPDAYCNLAHCLQIVCDWTDYDERMKKLVSIVADQLEKNRLPSVHPHHSMLYPLSHGFRKAIAERHGNLCLDKINVLHKPPYEHPKDLKLSDGRLRVGYVSSDFGNHPTSHLMQSIPGMHNPDKFEVFCYALSPDDGTNFRVKVMAEANHFIDLSQIPCNGKAADRIHQDGIHILVNMNGYTKGARNELFALRPAPIQAMWLGYPGTSGALFMDYIITDQETSPAEVAEQYSEKLAYMPHTFFIGDHANMFPHLKKKAVIDFKSNGHIYDNRIVLNGIDLKAFLDSLPDVKIVKMKCPDGGDNADSSNTALNMPVIPMNTIAEAVIEMINRGQIQITINGFSISNGLATTQINNKAATGEEVPRTIIVTTRSQYGLPEDAIVYCNFNQLYKIDPSTLQMWANILKRVPNSVLWLLRFPAVGEPNIQQYAQNMGLPQNRIIFSPVAPKEEHVRRGQLADVCLDTPLCNGHTTGMDVLWAGTPMVTMPGETLASRVAASQLTCLGCLELIAKNRQEYEDIAVKLGTDLEYLKKVRGKVWKQRISSPLFNTKQYTMELERLYLQMWEHYAAGNKPDHMIKPVEVTESA		binds
